Library screen at single concentrations

Values are the deposited “Percent Effect”, in %. How 0% and 100% were set is not recorded. Most values in the screen are low, and negative values occur. Compounds were drawn at random from those tested, without regard to their results.

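Phenotypic screen: M. tuberculosis growth, cholesterol and DPPC medium, 4 days; the read-out is not stated. Tested at 500 µM. The record gives no direction; compounds that gave an IC50 in retests scored well above the rest, so higher reads as more growth inhibition. Size under these conditions: about 18,000 compounds, about 900 of them at 50% or above in at least one test.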

{"compound": "COC(=O)Cn1ccc(=O)c2cc(Cl)ccc21", "percent effect": -20.78}
{"compound": "Cc1cccnc1CCNC(=O)Cc1cccnc1", "percent effect": 2.259}
{"compound": "O=C(Cc1noc2ccccc12)NCC1CCOC1", "stereo": "stereo unspecified", "percent effect": -6.345}
{"compound": "CS(=O)(=O)NC1CCN(C(=O)C2CCCC2)C1", "stereo": "stereo unspecified", "percent effect": 7.472}
{"compound": "CN(C)S(=O)(=O)N1CCN(CC2CCCCO2)CC1", "stereo": "stereo unspecified", "percent effect": -3.439}
{"compound": "CNC(=O)c1ccc(CNc2cncc(C)c2)cc1", "percent effect": 22.5}
{"compound": "CCC(C)Oc1cc(C(=O)NCc2ncc[nH]2)ccn1", "stereo": "stereo unspecified", "percent effect": 1.415}
{"compound": "O=C(NCC(O)c1ccc(Cl)cc1)Nc1ccccn1", "stereo": "stereo unspecified", "percent effect": 78.69}
{"compound": "CN(C(=O)c1cnccn1)C1(C#N)CCC1", "percent effect": -5.802}
{"compound": "CN1CCc2ccc(NC(=O)N3CCCC3)cc2C1=O", "percent effect": -11.65}
{"compound": "CC(C)NC1CCOCC1", "percent effect": -4.908}
{"compound": "CN1CCC(NC(=O)c2ccc(=O)n(C)c2)C1", "stereo": "stereo unspecified", "percent effect": -15.42}
{"compound": "Cc1cncn1CCCN", "percent effect": -13.83}
{"compound": "COCC1(NC(=O)CCc2ccncc2)CCCC1", "percent effect": 9.99}
{"compound": "NC1CCc2sccc2NC1=O", "stereo": "stereo unspecified", "percent effect": 12.45}
{"compound": "CN(CC(C)(C)O)C(=O)CCc1ccsc1", "percent effect": 12.67}
{"compound": "CCOc1ccccc1NC(=O)Cn1ccnc1", "percent effect": -5.981}
{"compound": "CC(C)n1cncc1CN1CCN(C(=O)N(C)C)CC1", "percent effect": 3.535}
{"compound": "c1cncc(CNCCc2nnc3ccccn23)c1", "percent effect": -10.68}
{"compound": "CCCc1ccc(CN2CCCN(C(C)=O)CC2)o1", "percent effect": 24.92}
{"compound": "Cc1ccc(NC(=O)CSC2=NCCN2)cc1", "percent effect": 26.43}
{"compound": "CN(CCc1ccccn1)CC(=O)NC1CC1", "percent effect": -0.2552}
{"compound": "CNc1ncccc1CN", "percent effect": -3.306}
{"compound": "CS(=O)(=O)c1ccccc1N1CCCC1", "percent effect": 10.6}
{"compound": "CN(C)CCn1ccc(N)n1", "percent effect": 8.226}
{"compound": "NS(=O)(=O)c1ccc(O)c(F)c1", "percent effect": -0.1134}
{"compound": "O=C(COc1ccccc1)N[C@H]1C[C@@H]2OCC[C@H]12", "percent effect": 45.57}
{"compound": "CC(C)(C)NC(=O)N1CCC(N)CC1", "percent effect": -10.54}
{"compound": "CN1C(=O)C[C@H](CN)[C@H]1c1cnn(C)c1", "percent effect": -0.3862}
{"compound": "CCN1CCN(CC(=O)Nc2cc(C)cc(C)c2)CC1", "percent effect": 32.96}
{"compound": "Cc1cc(N2CCCC(N)C2)nc(C)n1", "stereo": "stereo unspecified", "percent effect": 5.687}
{"compound": "CC(N[C@@H]1CCCC[C@H]1O)c1nccn1C", "stereo": "stereo partly specified", "percent effect": -6.551}
{"compound": "Cc1noc(-c2ccc(CN)cc2)n1", "percent effect": 12.63}
{"compound": "CC(=O)NC1CCNC1", "stereo": "stereo unspecified", "percent effect": -9.23}
{"compound": "Cc1ccc(OCc2csc(CS(C)(=O)=O)n2)nc1", "percent effect": -6.258}
{"compound": "CN(CC1COc2ccccc2O1)C(=O)C1CCC1", "stereo": "stereo unspecified", "percent effect": 91.31}
{"compound": "Cc1ccc(C(C)NC(=O)c2cnsn2)o1", "stereo": "stereo unspecified", "percent effect": 1.728}
{"compound": "Cc1ccccc1-c1nnc(CN2CCCS2(=O)=O)o1", "percent effect": 15.46}
{"compound": "Ic1nnnn1-c1ccccc1", "percent effect": 116}
{"compound": "CN(C)C1CCN(C(=O)CC#N)CC1", "percent effect": -21.21}
{"compound": "CC(=O)NCc1ccc(-c2csc(N)n2)s1", "percent effect": 6.319}
{"compound": "CCc1cc(C(=O)NC(CC)[C@H]2C[C@@H](O)C2)[nH]n1", "stereo": "stereo partly specified", "percent effect": 3.295}
{"compound": "Cn1cc(N)c(C(F)(F)F)n1", "percent effect": -2.816}
{"compound": "CNc1cccc2cccnc12", "percent effect": -70.09}
{"compound": "O=C(Cc1cccnc1)N1CCc2[nH]nc(CO)c2C1", "percent effect": -12.88}
{"compound": "CN(Cc1cnn(C)c1)C(=O)c1cc(Br)c[nH]1", "percent effect": 55.2}
{"compound": "CC(c1ccccn1)N(C)c1ncccc1C#N", "stereo": "stereo unspecified", "percent effect": 35.13}
{"compound": "COC1(CN)CCOCC1", "percent effect": -7.907}
{"compound": "CN(C)C(=O)c1ccc(-n2cccc2)c(F)c1", "percent effect": 23.83}
{"compound": "O=C(CN1CCCC1)NCC(=O)Nc1ccc(F)cc1", "percent effect": -17.83}
{"compound": "COCC(=O)N(C)C1CCCCC1", "percent effect": -4.323}
{"compound": "Nc1ncccc1CN1CCC(N2CCCCC2)C1", "stereo": "stereo unspecified", "percent effect": -39.26}

Data taken from ChEMBL document CHEMBL3988442, “University of Dundee, Small-Polar-MMV Screening Library” (2021).